{"source": "patent US20190216956A1", "about": "“COMPOSITIONS FOR RADIOTHERAPY AND USES THEREOF” (priority 2016, published 2019)", "key": {"[1]": {"assay": "Binding of bleomycin to talc, flow cytometry (Example 11)", "conditions": "for Ratio 355/450 (to no-bleomycin control) / Ratio 355/515 (to no-bleomycin control) / Ratio 355/620 (to no-bleomycin control) / Ratio 405/450 (to no-bleomycin control) / Ratio 405/515 (to no-bleomycin control) / Ratio 488/525 (to no-bleomycin control) / Ratio 532/575 (to no-bleomycin control) / Ratio 633/670 (to no-bleomycin control): talc + bleomycin, washed"}, "[2]": {"assay": "Binding Avidin to sterile talc powder, Pierce 660 nm total protein assay of supernatants and washes (Example 3)"}, "[3]": {"assay": "Attachment of HRP-labeled avidin to bladder mucosa, microtitre plate bladder platform (Example 33)", "format": "binding, pig"}, "[4]": {"assay": "Amount of Avidin saturating 100 mg talc, Pierce total protein assay (Example 4)", "format": "binding"}}, "note": "Values joined by “and” are separate entries in the source; they are usually repeats but may differ in a detail not shown here. Equal values may be shown once. Where a name gives a salt, the structure may show the parent alone.", "data": [{"compound": "Cc1c(N)nc([C@H](CC(N)=O)NC[C@H](N)C(N)=O)nc1C(=O)N[C@H](C(=O)N[C@H](C)[C@@H](O)[C@H](C)C(=O)N[C@H](C(=O)NCCc1nc(-c2nc(C(=O)NCCC[S+](C)C)cs2)cs1)[C@@H](C)O)[C@@H](O[C@@H]1OC(CO)[C@@H](O)C(O)C1O[C@H]1OC(CO)[C@@H](O)C(OC(N)=O)C1O)c1c[nH]cn1", "note": "(stereo partly shown) [Bleomycin, Bleomycin sulfate Streptomyces verticillus]", "values": [{"measurement": "binding of bleomycin to talc (flow cytometry)", "setting": "[1]; 25 mg talc, washed 3x PBS", "value": "binds to talc and remains on surface of talc even following multiple PBS washes"}, {"measurement": "Ratio 355/450 (to no-bleomycin control)", "setting": "[1]; sample 1 mg", "value": 1.0}, {"measurement": "Ratio 355/515 (to no-bleomycin control)", "setting": "[1]; sample 1 mg", "value": 1.0}, {"measurement": "Ratio 355/620 (to no-bleomycin control)", "setting": "[1]; sample 1 mg", "value": 1.3}, {"measurement": "Ratio 405/450 (to no-bleomycin control)", "setting": "[1]; sample 1 mg", "value": 0.8}, {"measurement": "Ratio 405/515 (to no-bleomycin control)", "setting": "[1]; sample 1 mg", "value": 0.6}, {"measurement": "Ratio 488/525 (to no-bleomycin control)", "setting": "[1]; sample 1 mg", "value": 0.9}, {"measurement": "Ratio 532/575 (to no-bleomycin control)", "setting": "[1]; sample 1 mg", "value": 1.1}, {"measurement": "Ratio 633/670 (to no-bleomycin control)", "setting": "[1]; sample 1 mg", "value": 1.1}, {"measurement": "Ratio 355/450 (to no-bleomycin control)", "setting": "[1]; sample 100 mg", "value": 2.3}, {"measurement": "Ratio 355/515 (to no-bleomycin control)", "setting": "[1]; sample 100 mg", "value": 1.2}, {"measurement": "Ratio 355/620 (to no-bleomycin control)", "setting": "[1]; sample 100 mg", "value": 1.6}, {"measurement": "Ratio 405/450 (to no-bleomycin control)", "setting": "[1]; sample 100 mg", "value": 2.4}, {"measurement": "Ratio 405/515 (to no-bleomycin control)", "setting": "[1]; sample 100 mg", "value": 2.5}, {"measurement": "Ratio 488/525 (to no-bleomycin control)", "setting": "[1]; sample 100 mg", "value": 1.7}, {"measurement": "Ratio 532/575 (to no-bleomycin control)", "setting": "[1]; sample 100 mg", "value": 1.6}, {"measurement": "Ratio 633/670 (to no-bleomycin control)", "setting": "[1]; sample 100 mg", "value": 1.0}, {"measurement": "Ratio 355/450 (to no-bleomycin control)", "setting": "[1]; sample 500 mg", "value": 7.0}, {"measurement": "Ratio 355/515 (to no-bleomycin control)", "setting": "[1]; sample 500 mg", "value": 1.3}, {"measurement": "Ratio 355/620 (to no-bleomycin control)", "setting": "[1]; sample 500 mg", "value": 2.5}, {"measurement": "Ratio 405/450 (to no-bleomycin control)", "setting": "[1]; sample 500 mg", "value": 7.3}, {"measurement": "Ratio 405/515 (to no-bleomycin control)", "setting": "[1]; sample 500 mg", "value": 6.6}, {"measurement": "Ratio 488/525 (to no-bleomycin control)", "setting": "[1]; sample 500 mg", "value": 2.1}, {"measurement": "Ratio 532/575 (to no-bleomycin control)", "setting": "[1]; sample 500 mg", "value": 3.0}, {"measurement": "Ratio 633/670 (to no-bleomycin control)", "setting": "[1]; sample 500 mg", "value": 1.1}]}, {"compound": "Avidin: Avidin from egg white (Sigma); 60,000 m.w. egg-white protein that binds biotin", "values": [{"measurement": "Saturation of AVIDIN to the combine surface of 100 mg talc", "setting": "[2]; 198.4 μg Avidin added to 100 mg talc", "value": 2.48, "unit": "μg/cm^2"}, {"measurement": "Avidin binded to talc", "setting": "[2]; 198.4 μg Avidin added to 100 mg talc (0.5 ml)", "value": 184.7, "unit": "µg"}, {"measurement": "Saturation of AVIDIN to the combine surface of 100 mg talc", "setting": "[2]; 1650.3 μg Avidin added to 100 mg talc", "value": 6.25, "unit": "μg/cm^2"}, {"measurement": "Avidin binded to talc", "setting": "[2]; 1650.3 μg Avidin added to 100 mg talc (0.5 ml)", "value": 465.3, "unit": "µg"}, {"measurement": "Amount of Avidin removed by wash", "setting": "[2]; 1st wash with EDTA, 198.4 μg Avidin added", "value": 15.8, "unit": "µg/mL"}, {"measurement": "Amount of Avidin removed by wash", "setting": "[2]; 1st wash with EDTA, 1650.3 μg Avidin added", "value": 13.2, "unit": "µg/mL"}, {"measurement": "Amount of Avidin removed by wash", "setting": "[2]; 1st wash with PBS, 198.4 μg Avidin added to 100 mg talc", "value": 31.4, "unit": "µg/mL"}, {"measurement": "Amount of Avidin removed by wash", "setting": "[2]; 1st wash with PBS, 1650.3 μg Avidin added to 100 mg talc", "value": 307.4, "unit": "µg/mL"}, {"measurement": "Amount of Avidin removed by wash", "setting": "[2]; 2nd wash with EDTA, 198.4 μg Avidin added", "value": 19.8, "unit": "µg/mL"}, {"measurement": "Amount of Avidin removed by wash", "setting": "[2]; 2nd wash with EDTA, 1650.3 μg Avidin added", "value": 12.3, "unit": "µg/mL"}, {"measurement": "Amount of Avidin removed by wash", "setting": "[2]; 2nd wash with PBS, 198.4 μg Avidin added", "value": 27.6, "unit": "µg/mL"}, {"measurement": "Amount of Avidin removed by wash", "setting": "[2]; 2nd wash with PBS, 1650.3 μg Avidin added", "value": 67.3, "unit": "µg/mL"}, {"measurement": "Amount of Avidin removed by wash", "setting": "[2]; 3rd wash with EDTA, 198.4 μg Avidin added", "value": 13, "unit": "µg/mL"}, {"measurement": "Amount of Avidin removed by wash", "setting": "[2]; 3rd wash with EDTA, 1650.3 μg Avidin added", "value": 13.2, "unit": "µg/mL"}, {"measurement": "Amount of Avidin removed by wash", "setting": "[2]; 3rd wash with PBS, 198.4 μg Avidin added", "value": 32.7, "unit": "µg/mL"}, {"measurement": "Amount of Avidin removed by wash", "setting": "[2]; 3rd wash with PBS, 1650.3 μg Avidin added", "value": 40.3, "unit": "µg/mL"}, {"measurement": "binding to porcine bladder mucosa", "setting": "[3]", "value": "bind tightly to porcine bladder mucosa"}, {"measurement": "pH at which binding to porcine bladder mucosa is best", "setting": "[3]; protein free saline", "value": "≤ 8.0"}, {"measurement": "Avidin per talc surface", "setting": "[4]; 330 μg/ml Avidin added", "value": 1.5, "unit": "μg/cm2"}, {"measurement": "Avidin per talc surface", "setting": "[4]; 3300 μg/ml Avidin added", "value": "33.0 μg/cm2 and 33 μg/cm2"}, {"measurement": "Avidin per talc surface", "setting": "[4]; 6600 μg/ml Avidin added", "value": 62.3, "unit": "μg/cm2"}, {"measurement": "Avidin per talc surface", "setting": "[4]; 19800 μg/ml Avidin added", "value": 163.5, "unit": "μg/cm2"}, {"measurement": "Avidin binded with talc", "setting": "[4]; ID 1: 19800 μg/ml Avidin added", "value": 12166.7, "unit": "µg/mL"}, {"measurement": "Avidin in supernatant", "setting": "[4]; ID 1: 19800 μg/ml Avidin added", "value": "7633.3 μg, ml"}, {"measurement": "Avidin binded with talc", "setting": "[4]; ID 2: […] Avidin added", "value": 7952.7, "unit": "µg/mL"}, {"measurement": "Avidin in supernatant", "setting": "[4]; ID 2: […] Avidin added", "value": "5247.3 μg, ml"}, {"measurement": "Avidin binded with talc", "setting": "[4]; ID 3: 6600 μg/ml Avidin added", "value": 4631.5, "unit": "µg/mL"}, {"measurement": "Avidin in supernatant", "setting": "[4]; ID 3: 6600 μg/ml Avidin added", "value": "1968.5 μg, ml"}, {"measurement": "Avidin binded with talc", "setting": "[4]; ID 4: 3300 μg/ml Avidin added", "value": 2452.7, "unit": "µg/mL"}, {"measurement": "Avidin in supernatant", "setting": "[4]; ID 4: 3300 μg/ml Avidin added", "value": "847.3 μg, ml"}, {"measurement": "Avidin binded with talc", "setting": "[4]; ID 5: 330 μg/ml Avidin added", "value": 110.4, "unit": "µg/mL"}, {"measurement": "Avidin in supernatant", "setting": "[4]; ID 5: 330 μg/ml Avidin added", "value": "219.6 μg, ml"}, {"measurement": "Avidin per talc surface", "setting": "[4]; […] Avidin added", "value": 106.9, "unit": "μg/cm2"}]}]}
